From PMC10798890
Results are given in words; binding and its absence hold for the method and conditions named. Binding seen in cells or lysates may run through a third protein. Some binding calls cover weakened binding; strength is not graded here.

By UniProt entry, the sequences of proteins in these tests, tags left out. Where a name states a change or a piece, a line headed by the entry shows the natural chain unless it says otherwise.
UniProt P03372: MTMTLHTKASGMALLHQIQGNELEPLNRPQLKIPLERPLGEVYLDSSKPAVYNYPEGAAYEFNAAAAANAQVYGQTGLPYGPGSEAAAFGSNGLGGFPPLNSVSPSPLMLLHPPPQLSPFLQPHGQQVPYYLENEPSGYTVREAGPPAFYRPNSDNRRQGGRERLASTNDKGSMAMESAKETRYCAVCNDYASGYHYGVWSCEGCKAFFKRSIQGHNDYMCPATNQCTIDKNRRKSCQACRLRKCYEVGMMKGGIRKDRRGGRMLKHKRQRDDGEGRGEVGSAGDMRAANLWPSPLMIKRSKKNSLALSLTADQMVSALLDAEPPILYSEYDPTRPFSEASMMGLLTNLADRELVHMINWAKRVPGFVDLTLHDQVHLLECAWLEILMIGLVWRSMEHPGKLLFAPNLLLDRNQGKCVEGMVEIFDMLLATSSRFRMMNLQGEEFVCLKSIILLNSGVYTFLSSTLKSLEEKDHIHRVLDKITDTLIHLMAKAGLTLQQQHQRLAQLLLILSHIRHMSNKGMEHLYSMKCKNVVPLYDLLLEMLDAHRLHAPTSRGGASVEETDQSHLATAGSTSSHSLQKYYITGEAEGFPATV
UniProt O00487: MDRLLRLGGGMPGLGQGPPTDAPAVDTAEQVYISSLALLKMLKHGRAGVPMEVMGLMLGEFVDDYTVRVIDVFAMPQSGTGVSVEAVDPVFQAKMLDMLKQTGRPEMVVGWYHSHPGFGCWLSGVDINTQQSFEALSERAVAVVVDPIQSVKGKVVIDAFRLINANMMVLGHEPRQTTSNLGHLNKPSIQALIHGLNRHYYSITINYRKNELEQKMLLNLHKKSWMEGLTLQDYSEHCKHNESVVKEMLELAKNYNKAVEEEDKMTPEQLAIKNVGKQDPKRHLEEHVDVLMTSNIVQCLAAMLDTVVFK

Legend:
Flag-ERα = Flag-ERα (UniProt P03372); experiment: co-IP; HEK-293T cotransfected with 2 µg ERα plasmid and full-length GFP-PSMD14 or its mutants; 10 μM MG132 for 6 h; NP-40 lysis buffer; co-IP with anti-Flag antibody, detection with anti-GFP antibody
Myc-PSMD14 (human) = Myc-PSMD14 (human) (UniProt O00487); experiment: co-IP; HEK-293T cotransfected with 2 µg PSMD14 plasmid and full-length HA-ERα or mutant ERα; 10 μM MG132 for 6 h; NP-40 lysis buffer; co-IP with anti-Myc antibody, detection with anti-HA antibody
[1] = target: ERα (human (endogenous in MCF-7)) (UniProt P03372); experiment: co-IP; endogenous proteins; lysates of MCF-7 cells precipitated with anti-ERα or anti-PSMD14 antibodies and protein A/G agarose at 4 °C overnight, precipitates examined by immunoblotting

| Substance | binding (Flag-ERα) | binding (Myc-PSMD14 (human)) | further results |
| --- | --- | --- | --- |
| GFP-PSMD14 (1–172) (from UniProt O00487 1-172) (domain or fragment) | binds |  |  |
| HA-ERα (1–180) (from UniProt P03372 1-180) (domain or fragment) |  | binds |  |
| PSMD14 (Proteasome 26S Subunit, Non-ATPase 14) (from UniProt O00487 1-310) (enzyme) |  |  | binding [1]: binds |
| full-length GFP-PSMD14 (from UniProt O00487 1-310) (enzyme) | binds |  |  |
| full-length HA-ERα (from UniProt P03372 1-595) (receptor) |  | binds |  |
